For the experiment, the target named is p85-wt-TAP (Gemin5 cleavage product p85 with a C-terminal TAP tag) (human) (UniProt Q8TEQ6). Description: affinity purification with mass spectrometry.

Amino acid sequences for entries named in this document (tags omitted). A change or cut given only in a name is not applied to a line headed by its entry. Chains listed by the source or under a name are the forms on record and can include a tag or linker. Residues count along the entry.
UniProt Q8TEQ6: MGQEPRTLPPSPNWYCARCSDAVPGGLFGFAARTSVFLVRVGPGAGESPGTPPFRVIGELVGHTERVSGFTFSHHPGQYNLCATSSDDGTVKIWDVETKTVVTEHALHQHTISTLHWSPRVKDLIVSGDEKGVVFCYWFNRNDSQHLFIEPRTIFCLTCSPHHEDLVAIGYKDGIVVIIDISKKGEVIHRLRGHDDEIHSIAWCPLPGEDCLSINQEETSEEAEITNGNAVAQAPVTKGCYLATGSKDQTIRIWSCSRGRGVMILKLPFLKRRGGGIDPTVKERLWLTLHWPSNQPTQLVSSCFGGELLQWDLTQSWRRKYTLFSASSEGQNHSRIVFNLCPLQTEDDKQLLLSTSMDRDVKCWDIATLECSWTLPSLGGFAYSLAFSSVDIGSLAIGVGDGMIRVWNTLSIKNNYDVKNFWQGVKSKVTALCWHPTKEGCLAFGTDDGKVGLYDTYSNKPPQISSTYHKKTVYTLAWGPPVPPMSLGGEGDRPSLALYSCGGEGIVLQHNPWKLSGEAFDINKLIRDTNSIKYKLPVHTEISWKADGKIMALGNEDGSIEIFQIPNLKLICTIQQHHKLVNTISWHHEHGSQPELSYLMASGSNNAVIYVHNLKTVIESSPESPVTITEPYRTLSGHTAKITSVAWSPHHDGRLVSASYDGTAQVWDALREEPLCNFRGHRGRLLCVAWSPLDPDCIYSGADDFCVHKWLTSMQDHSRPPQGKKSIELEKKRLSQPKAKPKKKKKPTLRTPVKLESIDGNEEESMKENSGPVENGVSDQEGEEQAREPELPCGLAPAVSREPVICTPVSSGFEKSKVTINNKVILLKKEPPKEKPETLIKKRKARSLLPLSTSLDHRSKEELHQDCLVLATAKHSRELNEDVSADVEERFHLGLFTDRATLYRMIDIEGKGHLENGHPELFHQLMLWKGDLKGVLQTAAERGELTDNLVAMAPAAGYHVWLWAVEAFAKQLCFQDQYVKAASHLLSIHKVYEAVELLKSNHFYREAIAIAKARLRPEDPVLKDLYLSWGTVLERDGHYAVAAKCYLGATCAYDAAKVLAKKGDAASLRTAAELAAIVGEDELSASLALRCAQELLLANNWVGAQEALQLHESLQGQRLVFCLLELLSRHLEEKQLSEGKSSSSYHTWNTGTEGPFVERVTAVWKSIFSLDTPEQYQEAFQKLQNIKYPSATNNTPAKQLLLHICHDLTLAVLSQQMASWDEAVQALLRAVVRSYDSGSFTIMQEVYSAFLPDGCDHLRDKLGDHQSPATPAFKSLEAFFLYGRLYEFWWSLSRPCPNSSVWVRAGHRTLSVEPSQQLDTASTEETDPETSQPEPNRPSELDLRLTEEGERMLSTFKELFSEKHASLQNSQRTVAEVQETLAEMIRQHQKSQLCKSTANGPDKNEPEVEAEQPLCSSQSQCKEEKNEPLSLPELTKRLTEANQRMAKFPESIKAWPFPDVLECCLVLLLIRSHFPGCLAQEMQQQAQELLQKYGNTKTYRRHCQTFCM
p85-wt-TAP (Gemin5 cleavage product p85 with a C-terminal TAP tag): residues 845-1508 of Q8TEQ6

The text below walks through data of doi:10.1101/654111 (bioRxiv, 2019).

Results are given in words; binding and its absence hold for the method and conditions named. Binding seen in cells or lysates may run through a third protein. A yes stands for co-enrichment or nearness to the bait. Other partners may have been found.

With “Gemin5 (endogenous full-length protein) (from UniProt Q8TEQ6 1-1508)”, the binding entry is recorded as “binds”.
